Experimental data: PubChem BioAssay AID1224830 (NIAID, 2016)

Test: 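Host factors that control LPS-induced TNF expression in human macrophages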 (primary screen)
Cell system: human THP-1 monocytic leukaemia cells, TNF dual-luciferase reporter clone, PMA-differentiated to macrophage-like cells
Reagents: siRNA pool against human genes, 50 nM
Time to read-out: LPS for 4 h, given about 3 days after siRNA transfection
Conditions: bacterial LPS (TLR4 ligand), 10 ng/ml
Measurement: 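TNF firefly reporter luminescence divided by renilla, normalised to the plate median, then turned into a robust z-score for each replicate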
Scale: TNF reporter robust z-score: higher = stronger TNF reporter response to LPS
Active means: 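a well is active when its z-score exceeds 2.8 or falls below -1.5; control wells carry no call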
This is a random part of about 18,000 reagents tested. About 2,900 of them (16%) count as active. 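Calls are made per well; low scores hint the gene aids the LPS response, high scores that it dampens it.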 Entries without a mark were called inactive. Repeated entries: four replicate wells of each siRNA pool.

| TNF reporter robust z-score | target |
| --- | --- |
| -0.99 | GMCL1 (germ cell-less 1, spermatogenesis associated) |
| -1.33 | GMCL1 (germ cell-less 1, spermatogenesis associated) |
| -1.02 | GMCL1 (germ cell-less 1, spermatogenesis associated) |
| -0.31 | GMCL1 (germ cell-less 1, spermatogenesis associated) |
| -0.48 | PTF1A (pancreas associated transcription factor 1a) |
| -0.57 | PTF1A (pancreas associated transcription factor 1a) |
| -0.44 | PTF1A (pancreas associated transcription factor 1a) |
| -0.1 | PTF1A (pancreas associated transcription factor 1a) |
| -1.53 (active) | OR10W1 (olfactory receptor family 10 subfamily W member 1) |
| -1.14 | OR10W1 (olfactory receptor family 10 subfamily W member 1) |
| -1.31 | OR10W1 (olfactory receptor family 10 subfamily W member 1) |
| -0.91 | OR10W1 (olfactory receptor family 10 subfamily W member 1) |
| 1.33 | PPT1 (palmitoyl-protein thioesterase 1) |
| 1.06 | PPT1 (palmitoyl-protein thioesterase 1) |
| 1.72 | PPT1 (palmitoyl-protein thioesterase 1) |
| 1.38 | PPT1 (palmitoyl-protein thioesterase 1) |
| 1.95 | C22orf42 (chromosome 22 open reading frame 42) |
| 0.8 | C22orf42 (chromosome 22 open reading frame 42) |
| 1 | C22orf42 (chromosome 22 open reading frame 42) |
| 0 | C22orf42 (chromosome 22 open reading frame 42) |
| 0.52 | CCDC42 (coiled-coil domain containing 42) |
| -0.03 | CCDC42 (coiled-coil domain containing 42) |
| 0.2 | CCDC42 (coiled-coil domain containing 42) |
| 0 | CCDC42 (coiled-coil domain containing 42) |
| 0.18 | OSBPL10 (oxysterol binding protein like 10) |
| 2.18 | OSBPL10 (oxysterol binding protein like 10) |
| 2.03 | OSBPL10 (oxysterol binding protein like 10) |
| -1.04 | SLC25A26 |
| -0.54 | SLC25A26 |
| -0.37 | SLC25A26 |
| -0.44 | SLC25A26 |
| -0.79 | MRPL11 (mitochondrial ribosomal protein L11) |
| -1.21 | MRPL11 (mitochondrial ribosomal protein L11) |
| -0.67 | MRPL11 (mitochondrial ribosomal protein L11) |
| -0.89 | MRPL11 (mitochondrial ribosomal protein L11) |
| 0.26 | IL34 (interleukin 34) |
| -0.38 | IL34 (interleukin 34) |
| -0.27 | IL34 (interleukin 34) |
| 0.22 | IL34 (interleukin 34) |
| -0.92 | GPR39 (G protein-coupled receptor 39) |
| -0.3 | GPR39 (G protein-coupled receptor 39) |
| -0.34 | GPR39 (G protein-coupled receptor 39) |
| 0.14 | GPR39 (G protein-coupled receptor 39) |
| 2.03 | LAPTM5 (lysosomal protein transmembrane 5) |
| 2.92 (active) | LAPTM5 (lysosomal protein transmembrane 5) |
| -0.5 | LAPTM5 (lysosomal protein transmembrane 5) |
| 0.55 | LAPTM5 (lysosomal protein transmembrane 5) |
| 2.1 | GTF2F1 (general transcription factor IIF subunit 1) |
| 3.81 (active) | GTF2F1 (general transcription factor IIF subunit 1) |
| 2.05 | GTF2F1 (general transcription factor IIF subunit 1) |
| 0.52 | GTF2F1 (general transcription factor IIF subunit 1) |
| 0.16 | MRPS18A (mitochondrial ribosomal protein S18A) |
| 0.49 | MRPS18A (mitochondrial ribosomal protein S18A) |
| -1.01 | MRPS18A (mitochondrial ribosomal protein S18A) |
| 0.51 | MRPS18A (mitochondrial ribosomal protein S18A) |
| 0.93 | TPP1 (tripeptidyl peptidase 1) |
| 2.5 | TPP1 (tripeptidyl peptidase 1) |
| 0.18 | TPP1 (tripeptidyl peptidase 1) |
| -0.22 | TPP1 (tripeptidyl peptidase 1) |
| 1.57 | GOLGA2P5 (GOLGA2 pseudogene 5) |
| 1.07 | GOLGA2P5 (GOLGA2 pseudogene 5) |
| 0.97 | GOLGA2P5 (GOLGA2 pseudogene 5) |
| 0.52 | GOLGA2P5 (GOLGA2 pseudogene 5) |
| 0.4 | MANBA (mannosidase beta) |
| 0.94 | MANBA (mannosidase beta) |
| 0.31 | MANBA (mannosidase beta) |
| -0.34 | MANBA (mannosidase beta) |
| -0.01 | INPP1 (inositol polyphosphate-1-phosphatase) |
| -0.13 | INPP1 (inositol polyphosphate-1-phosphatase) |
| -0.33 | INPP1 (inositol polyphosphate-1-phosphatase) |
| 0.39 | INPP1 (inositol polyphosphate-1-phosphatase) |
| -0.21 | APOL4 (apolipoprotein L4) |
| 0.51 | APOL4 (apolipoprotein L4) |
| 0 | APOL4 (apolipoprotein L4) |
| -0.85 | APOL4 (apolipoprotein L4) |
| -0.49 | TMEM242 (transmembrane protein 242) |
| -0.63 | TMEM242 (transmembrane protein 242) |
| -0.77 | TMEM242 (transmembrane protein 242) |
| 0.84 | TMEM242 (transmembrane protein 242) |
| -1.8 (active) | PRRT1 (proline rich transmembrane protein 1) |
| -1.97 (active) | PRRT1 (proline rich transmembrane protein 1) |
| -1.31 | PRRT1 (proline rich transmembrane protein 1) |
| -1.73 (active) | PRRT1 (proline rich transmembrane protein 1) |
| -0.95 | KLHL14 (kelch like family member 14) |
| -0.2 | KLHL14 (kelch like family member 14) |
| 0.14 | KLHL14 (kelch like family member 14) |
| -0.59 | KLHL14 (kelch like family member 14) |
| -0.52 | MTF1 (metal regulatory transcription factor 1) |
| 0.17 | MTF1 (metal regulatory transcription factor 1) |
| 0.37 | MTF1 (metal regulatory transcription factor 1) |
| 0.82 | MTF1 (metal regulatory transcription factor 1) |
| 0.26 | BSDC1 (BSD domain containing 1) |
| 0.31 | BSDC1 (BSD domain containing 1) |
| 1.22 | BSDC1 (BSD domain containing 1) |
| 0.57 | BSDC1 (BSD domain containing 1) |
| 0.1 | KCTD8 (potassium channel tetramerization domain containing 8) |
| 0.03 | KCTD8 (potassium channel tetramerization domain containing 8) |
| 0.15 | KCTD8 (potassium channel tetramerization domain containing 8) |
| 1.91 | KCTD8 (potassium channel tetramerization domain containing 8) |
| -1.81 (active) | OTUD7B (OTU deubiquitinase 7B) |
| -2.14 (active) | OTUD7B (OTU deubiquitinase 7B) |
| -1.38 | OTUD7B (OTU deubiquitinase 7B) |
| 0.99 | OTUD7B (OTU deubiquitinase 7B) |
| 1.3 | UBTD1 (ubiquitin domain containing 1) |
| 1.57 | UBTD1 (ubiquitin domain containing 1) |
| 1.65 | UBTD1 (ubiquitin domain containing 1) |
| 2.05 | UBTD1 (ubiquitin domain containing 1) |
| -1.24 | WDR36 (WD repeat domain 36) |
| -0.87 | WDR36 (WD repeat domain 36) |
| 1.52 | WDR36 (WD repeat domain 36) |
| 0.58 | WDR36 (WD repeat domain 36) |
| -0.91 | DEFB114 (defensin beta 114) |
| -0.53 | DEFB114 (defensin beta 114) |
| -1.67 (active) | DEFB114 (defensin beta 114) |
| -1.41 | DEFB114 (defensin beta 114) |
| 1.24 | GLUL (glutamate-ammonia ligase) |
| 1.43 | GLUL (glutamate-ammonia ligase) |
| 0.31 | GLUL (glutamate-ammonia ligase) |
| 1.34 | GLUL (glutamate-ammonia ligase) |
| 1.79 | TRMU (tRNA mitochondrial 2-thiouridylase) |
| 1.16 | TRMU (tRNA mitochondrial 2-thiouridylase) |
| -0.12 | TRMU (tRNA mitochondrial 2-thiouridylase) |
| 2.69 | TRMU (tRNA mitochondrial 2-thiouridylase) |
| 0.81 | CPSF4 (cleavage and polyadenylation specific factor 4) |
| 0.52 | CPSF4 (cleavage and polyadenylation specific factor 4) |
| -0.1 | CPSF4 (cleavage and polyadenylation specific factor 4) |
| 0.95 | CPSF4 (cleavage and polyadenylation specific factor 4) |
| -0.11 | HSD11B1 (hydroxysteroid 11-beta dehydrogenase 1) |
| 0.47 | HSD11B1 (hydroxysteroid 11-beta dehydrogenase 1) |
| 0.72 | HSD11B1 (hydroxysteroid 11-beta dehydrogenase 1) |
| 1.19 | HSD11B1 (hydroxysteroid 11-beta dehydrogenase 1) |
| 0.38 | MXRA8 (matrix remodeling associated 8) |
| 0.67 | MXRA8 (matrix remodeling associated 8) |
| -0.79 | MXRA8 (matrix remodeling associated 8) |
| 0.9 | MXRA8 (matrix remodeling associated 8) |
| -0.66 | MED31 (mediator complex subunit 31) |
| -0.88 | MED31 (mediator complex subunit 31) |
| -1.5 | MED31 (mediator complex subunit 31) |
| -0.26 | MED31 (mediator complex subunit 31) |
| -1.27 | ZC3H18 (zinc finger CCCH-type containing 18) |
| -0.59 | ZC3H18 (zinc finger CCCH-type containing 18) |
| -0.69 | ZC3H18 (zinc finger CCCH-type containing 18) |
| -0.21 | ZC3H18 (zinc finger CCCH-type containing 18) |
